Laboratory results: PubChem BioAssay AID652243 (Drosophila RNAi Screening Center, 2013)

Screen: 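Knock-downs that decrease or increase androgen receptor reporter signal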 (primary screen)
System: Drosophila S2R+ cells
Reagents: long dsRNA against Drosophila genes
Duration: 72 h (48 h, then 24 h hormone)
Treatment: synthetic androgen R1881 at 10 nM for 24 h
Measurement: 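Per-well raw luminescence of the androgen-driven firefly reporter and of the Renilla control, two replicates each, without normalisation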
Direction: firefly reporter light: higher = more light from androgen-responsive reporter; Renilla control light: higher = more constitutive control signal (cell number, transfection)
Hit rule: 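Hit when the log firefly-to-Renilla ratio dropped or increased by a fixed fold versus the mean of GFP or LacZ controls across duplicate plates; lowering cut given as 1.5 and as 3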
Calls: active = hit: reporter lowered or raised; inactive = no hit
In all, the deposit lists about 24,000 reagents; this is a random part of those that have a named target and a result. In the full data, 246 (1%) got an active call. 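Plates not normalised; calls are printed but the firefly/Renilla ratio behind them is not deposited; fold cut for lowering reported inconsistently.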 Raw values vary from plate to plate and are shown uncorrected. A plus sign joins genes that one reagent is predicted to hit. Reagent sequences are not shown. Not stated in the record: the amount of reagent.

no.	target gene	dsRNA	firefly reporter light, replicate 1	firefly reporter light, replicate 2	Renilla control light, replicate 1	Renilla control light, replicate 2	Outcome
1	CG12133 (GeneID 36036)	DRSC06108	2.98e5	2.62e5	1.42e6	1.74e6	inactive
2	CG12133 (GeneID 36036)	DRSC25602	1.05e6	8.25e5	1.07e6	1.05e6	inactive
3	chrb (GeneID 39284)	DRSC11335	2.83e5	2.60e5	2.40e6	2.30e6	inactive
4	chrb (GeneID 39284)	DRSC25273	1.31e6	6.88e5	8.82e5	6.66e5	inactive
5	CG34173 (GeneID 5740285)	DRSC38728	1.16e6	9.15e5	1.97e6	1.98e6	inactive
6	Atg18a (GeneID 38913)	DRSC10943	1.03e6	7.17e5	9.24e5	1.25e6	inactive
7	nkt (GeneID 39264)	DRSC10144	2.87e5	2.94e5	2.35e6	2.49e6	inactive
8	mthl4 (GeneID 36960)	DRSC06998	1.73e5	1.45e5	3.22e6	3.22e6	inactive
9	Lkb1 (GeneID 41673)	DRSC16481	43066	49194	2.72e5	4.04e5	inactive
10	Lkb1 (GeneID 41673)	DRSC36925					inactive
11	Lkb1 (GeneID 41673)	DRSC36926					inactive
12	Mst57Da (GeneID 47954)	DRSC16744	1.17e5	1.84e5	2.29e6	2.07e6	inactive
13	CG12640 (GeneID 31973)	DRSC17847	4.54e5	2.60e5	3.08e6	2.18e6	inactive
14	CG12640 (GeneID 31973)	DRSC26324	2.76e5	3.05e5	3.18e5	3.48e5	inactive
15	bai (GeneID 42996)	DRSC14388	2.35e5	2.18e5	1.76e6	1.73e6	inactive
16	CG33203 (GeneID 43414)	DRSC14876	2.59e5	2.31e5	2.35e6	4.09e6	inactive
17	CG33203 (GeneID 43414)	DRSC14877	4.40e5	5.84e5	1.32e6	1.66e6	inactive
18	CG33203 (GeneID 43414)	DRSC23428	6.01e5	8.59e5	7.92e5	9.75e5	inactive
19	CG4293 (GeneID 31001)	DRSC18557	46925	65248	5.26e5	3.83e5	inactive
20	Or33a (GeneID 34601)	DRSC03386	2.29e5	1.87e5	1.60e6	1.80e6	inactive
21	CG13876 (GeneID 38031)	DRSC08346	54802	74821	1.30e6	1.28e6	inactive
22	CG12239 (GeneID 31509)	DRSC17832	85680	93095	8.07e5	6.92e5	inactive
23	CG12239 (GeneID 31509)	DRSC27969	6.01e5	5.13e5	2.09e6	1.20e6	inactive
24	Atpalpha (GeneID 48971)	DRSC14119	1.05e5	82748	8.09e5	7.92e5	inactive
25	Atpalpha (GeneID 48971)	DRSC39134	8.58e5	7.23e5	1.97e6	1.54e6	inactive
26	lncRNA:CR42862 + CG33229	DRSC08497	1.03e6	9.66e5	1.45e6	1.29e6	inactive
27	RNaseZ (GeneID 36086)	DRSC06845	3.33e5	2.12e5	1.75e6	1.45e6	inactive
28	CG31125 (GeneID 318599)	DRSC13684	1.06e5	66073	1.53e5	1.82e5	inactive
29	CG31125 (GeneID 318599)	DRSC25124	8.62e5	1.38e6	7.48e5	8.95e5	inactive
30	ea (GeneID 41858)	DRSC16939	1.37e5	1.24e5	1.86e6	2.30e6	inactive
31	ea (GeneID 41858)	DRSC25595	5.95e5	4.83e5	7.80e5	6.87e5	inactive
32	mRpS11 (GeneID 42061)	DRSC15732	3.31e5	2.58e5	2.63e6	2.44e6	inactive
33	GNBP1 (GeneID 40034)	DRSC11169	2.71e5	2.64e5	3.05e6	2.50e6	inactive
34	GNBP1 (GeneID 40034)	DRSC21836	8.33e5	7.56e5	2.04e6	1.80e6	inactive
35	Cox17 (GeneID 32439)	DRSC20145	4.02e5	4.26e5	2.58e6	3.24e6	inactive
36	CG17328 (GeneID 34962)	DRSC01927	4.30e5	3.84e5	3.88e6	3.64e6	inactive
37	CG17328 (GeneID 34962)	DRSC22448	6.49e5	8.60e5	1.45e6	2.32e6	inactive
38	CG17328 (GeneID 34962)	DRSC25397	3.98e5	6.44e5	8.03e5	8.10e5	inactive
39	CG3106 (GeneID 31909)	DRSC18279	1.04e5	1.27e5	7.53e5	8.65e5	inactive
40	CG3106 (GeneID 31909)	DRSC29465	4.83e5	3.63e5	8.90e5	8.90e5	inactive
41	CycJ (GeneID 38428)	DRSC08653	1.40e6	9.71e5	1.63e6	1.15e6	inactive
42	CycJ (GeneID 38428)	DRSC29329	4.88e5	4.83e5	1.36e6	1.36e6	inactive
43	CAH5 (GeneID 50102)	DRSC15372	1.65e5	1.12e5	1.69e6	2.32e6	inactive

Ordered by “Renilla control light, replicate 2” (lowest first): 6 of the entries above
target gene	dsRNA	firefly reporter light, replicate 1	firefly reporter light, replicate 2	Renilla control light, replicate 1	Renilla control light, replicate 2	Outcome
GNBP1 (GeneID 40034)	DRSC21836	8.33e5	7.56e5	2.04e6	1.80e6	inactive
CG17328 (GeneID 34962)	DRSC22448	6.49e5	8.60e5	1.45e6	2.32e6	inactive
mRpS11 (GeneID 42061)	DRSC15732	3.31e5	2.58e5	2.63e6	2.44e6	inactive
GNBP1 (GeneID 40034)	DRSC11169	2.71e5	2.64e5	3.05e6	2.50e6	inactive
Cox17 (GeneID 32439)	DRSC20145	4.02e5	4.26e5	2.58e6	3.24e6	inactive
CG17328 (GeneID 34962)	DRSC01927	4.30e5	3.84e5	3.88e6	3.64e6	inactive

Further reagents follow.
no.	target gene	dsRNA	firefly reporter light, replicate 1	firefly reporter light, replicate 2	Renilla control light, replicate 1	Renilla control light, replicate 2	Outcome
44	CG31759 (GeneID 326158)	DRSC01230	1.06e5	1.95e5	3.25e5	5.24e5	inactive
45	mRpS16 (GeneID 36570)	DRSC07152	69537	96352	1.53e6	1.53e6	inactive
46	CG3626 (GeneID 31377)	DRSC18318	4.15e5	4.69e5	4.42e6	4.46e6	inactive
47	CG3626 (GeneID 31377)	DRSC26443	3.37e5	2.63e5	5.52e5	3.57e5	inactive
48	CG15597 (GeneID 40767)	DRSC12283	5.86e5	6.74e5	2.36e6	1.93e6	inactive
49	CG15597 (GeneID 40767)	DRSC24202	1.48e6	1.26e6	5.05e5	4.84e5	inactive
50	hoka (GeneID 38588)	DRSC08313	1.34e5	1.44e5	1.33e6	2.03e6	inactive
51	St4 (GeneID 36548)	DRSC07008	64133	62464	1.18e6	1.18e6	inactive
52	cu (GeneID 41339)	DRSC15643	2.07e5	1.58e5	3.16e6	2.38e6	inactive
53	cu (GeneID 41339)	DRSC15648	1.46e5	94774	1.71e6	1.97e6	inactive
54	CaMKI (GeneID 43792)	DRSC17162	1.11e5	1.44e5	1.25e6	8.87e5	inactive
55	CaMKI (GeneID 43792)	DRSC36713					inactive
56	CaMKI (GeneID 43792)	DRSC36714					inactive
57	CG6753 (GeneID 41557)	DRSC16108	98561	1.16e5	1.72e6	1.17e6	inactive
58	CG6753 (GeneID 41557)	DRSC28449	4.03e5	4.29e5	3.90e5	7.93e5	inactive
59	CG18659 (GeneID 35929)	DRSC06784	3.26e5	2.07e5	2.28e6	1.74e6	inactive
60	CG17097 (GeneID 34461)	DRSC02569	2.17e5	1.86e5	1.37e6	1.42e6	inactive
61	CG17097 (GeneID 34461)	DRSC24178	8.36e5	8.08e5	1.12e6	1.09e6	inactive
62	CG6028 (GeneID 42589)	DRSC15951	60318	51330	4.07e5	3.81e5	inactive
63	Arr1 (GeneID 35078)	DRSC01867	1.05e5	1.57e5	1.41e6	2.13e6	inactive
64	CG31524 (GeneID 318781)	DRSC22014	6.50e5	5.87e5	2.25e6	1.79e6	inactive
65	CG31524 (GeneID 318781)	DRSC28999	9.11e5	5.72e5	1.26e6	1.07e6	inactive
66	iotaTry (GeneID 36223)	DRSC07634	2.35e5	94043	1.88e6	1.05e6	inactive
67	Ugt36D1 (GeneID 35138)	DRSC02600	9.27e5	8.41e5	1.43e6	1.65e6	inactive
68	CG13510 (GeneID 37596)	DRSC04152	3.75e5	3.57e5	2.46e6	1.72e6	inactive
69	CG13924 (GeneID 38247)	DRSC08393	47419	61916	8.30e5	8.52e5	inactive
70	Nadsyn (GeneID 32328)	DRSC20222	1.03e5	88273	5.51e5	5.69e5	inactive
71	CG14052 (GeneID 31203)	DRSC17907	4.65e5	3.42e5	3.95e6	3.20e6	inactive
72	CG14052 (GeneID 31203)	DRSC18192	4.63e5	4.89e5	4.31e6	4.23e6	inactive
73	CG14052 (GeneID 31203)	DRSC25215	8.80e5	9.21e5	1.22e6	1.25e6	inactive
74	CG8128 (GeneID 32504)	DRSC20084	1.11e5	1.18e5	6.18e5	8.20e5	inactive
